Source: PubChem BioAssay AID1224830 (NIAID, 2016)
The deposit covers about 18,000 reagents; this is a random part of them. About 2,900 of all reagents (16%) count as active. 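Calls are made per well; low scores hint the gene aids the LPS response, high scores that it dampens it.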 Unmarked entries are inactive. Repeated entries: four replicate wells of each siRNA pool.

Purpose: 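Host factors that control LPS-induced TNF expression in human macrophages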 (primary screen)
Cell system: human THP-1 monocytic leukaemia cells, TNF dual-luciferase reporter clone, PMA-differentiated to macrophage-like cells
Reagents: siRNA pool against human genes, 50 nM
Timing: LPS for 4 h, given about 3 days after siRNA transfection
Conditions: bacterial LPS (TLR4 ligand), 10 ng/ml
Read-out: 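TNF firefly reporter luminescence divided by renilla, normalised to the plate median, then turned into a robust z-score for each replicate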
Reading the numbers: TNF reporter robust z-score: higher = stronger TNF reporter response to LPS
Rule for the call: 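a well is active when its z-score exceeds 2.8 or falls below -1.5; control wells carry no call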

gene	TNF reporter robust z-score
SYT8 (synaptotagmin 8)	0.27
SYT8 (synaptotagmin 8)	0.37
SYT8 (synaptotagmin 8)	0.94
SYT8 (synaptotagmin 8)	0.61
YWHAZ	0.3
YWHAZ	0.21
YWHAZ	-0.08
YWHAZ	-0.55
RILP (Rab interacting lysosomal protein)	-1.08
RILP (Rab interacting lysosomal protein)	-1.21
RILP (Rab interacting lysosomal protein)	-1.3
RILP (Rab interacting lysosomal protein)	-0.64
FAM153B (family with sequence similarity 153 member B)	-0.49
FAM153B (family with sequence similarity 153 member B)	0.2
FAM153B (family with sequence similarity 153 member B)	1.53
FAM153B (family with sequence similarity 153 member B)	1
PDZRN3 (PDZ domain containing ring finger 3)	-0.36
PDZRN3 (PDZ domain containing ring finger 3)	0.56
PDZRN3 (PDZ domain containing ring finger 3)	1.09
PDZRN3 (PDZ domain containing ring finger 3)	0.7
USP8 (ubiquitin specific peptidase 8)	-0.53
USP8 (ubiquitin specific peptidase 8)	2.02
USP8 (ubiquitin specific peptidase 8)	-0.05
USP8 (ubiquitin specific peptidase 8)	0.79
OR2T4 (olfactory receptor family 2 subfamily T member 4)	-0.6
OR2T4 (olfactory receptor family 2 subfamily T member 4)	0.05
OR2T4 (olfactory receptor family 2 subfamily T member 4)	-0.98
OR2T4 (olfactory receptor family 2 subfamily T member 4)	-0.8
DMXL1 (Dmx like 1)	-0.93
DMXL1 (Dmx like 1)	-0.6
DMXL1 (Dmx like 1)	-0.43
DMXL1 (Dmx like 1)	-0.53
NSMF	-1.38
NSMF	-0.99
NSMF	-1.15
NSMF	-1.2
MEGF8 (multiple EGF like domains 8)	0.65
MEGF8 (multiple EGF like domains 8)	0.35
MEGF8 (multiple EGF like domains 8)	0.34
MEGF8 (multiple EGF like domains 8)	-0.23
PLA2G12B (phospholipase A2 group XIIB)	-0.41
PLA2G12B (phospholipase A2 group XIIB)	0.15
PLA2G12B (phospholipase A2 group XIIB)	0.49
PLA2G12B (phospholipase A2 group XIIB)	1.03
ITGA10 (integrin subunit alpha 10)	2.25
ITGA10 (integrin subunit alpha 10)	2.19
ITGA10 (integrin subunit alpha 10)	-0.01
ITGA10 (integrin subunit alpha 10)	0.61
RAB3IP (RAB3A interacting protein)	0.64
RAB3IP (RAB3A interacting protein)	0.86
RAB3IP (RAB3A interacting protein)	-0.27
RAB3IP (RAB3A interacting protein)	0.03
DNAJC7 (DnaJ heat shock protein family (Hsp40) member C7)	-0.96
DNAJC7 (DnaJ heat shock protein family (Hsp40) member C7)	1.29
DNAJC7 (DnaJ heat shock protein family (Hsp40) member C7)	0.01
DNAJC7 (DnaJ heat shock protein family (Hsp40) member C7)	-0.59
ZNF211 (zinc finger protein 211)	-0.44
ZNF211 (zinc finger protein 211)	-0.83
ZNF211 (zinc finger protein 211)	-0.32
ZNF211 (zinc finger protein 211)	-0.55
MFHAS1 (multifunctional ROCO family signaling regulator 1)	-1.72 (active)
MFHAS1 (multifunctional ROCO family signaling regulator 1)	-1.35
MFHAS1 (multifunctional ROCO family signaling regulator 1)	-0.37
MFHAS1 (multifunctional ROCO family signaling regulator 1)	0.22
ADRA1D (adrenoceptor alpha 1D)	0.11
ADRA1D (adrenoceptor alpha 1D)	1.35
ADRA1D (adrenoceptor alpha 1D)	1.36
ADRA1D (adrenoceptor alpha 1D)	1.13
GRIN3A (glutamate ionotropic receptor NMDA type subunit 3A)	-1.19
GRIN3A (glutamate ionotropic receptor NMDA type subunit 3A)	-0.12
GRIN3A (glutamate ionotropic receptor NMDA type subunit 3A)	-0.79
GRIN3A (glutamate ionotropic receptor NMDA type subunit 3A)	-0.2
PHC2 (polyhomeotic homolog 2)	-1.6 (active)
PHC2 (polyhomeotic homolog 2)	-1.46
PHC2 (polyhomeotic homolog 2)	-1.81 (active)
PHC2 (polyhomeotic homolog 2)	-1.39
CPT1B (carnitine palmitoyltransferase 1B)	-0.95
CPT1B (carnitine palmitoyltransferase 1B)	-1.21
CPT1B (carnitine palmitoyltransferase 1B)	-0.03
CPT1B (carnitine palmitoyltransferase 1B)	0.4
PPP1R13L (protein phosphatase 1 regulatory subunit 13 like)	0.72
PPP1R13L (protein phosphatase 1 regulatory subunit 13 like)	0.27
PPP1R13L (protein phosphatase 1 regulatory subunit 13 like)	0.5
PPP1R13L (protein phosphatase 1 regulatory subunit 13 like)	1.24
MBLAC1 (metallo-beta-lactamase domain containing 1)	-0.5
MBLAC1 (metallo-beta-lactamase domain containing 1)	0.15
MBLAC1 (metallo-beta-lactamase domain containing 1)	-0.24
MBLAC1 (metallo-beta-lactamase domain containing 1)	-0.09
PLA2G5 (phospholipase A2 group V)	-1.12
PLA2G5 (phospholipase A2 group V)	0.26
PLA2G5 (phospholipase A2 group V)	-0.59
PLA2G5 (phospholipase A2 group V)	-0.7
AHSA1 (activator of HSP90 ATPase activity 1)	-1.33
AHSA1 (activator of HSP90 ATPase activity 1)	-0.84
AHSA1 (activator of HSP90 ATPase activity 1)	-0.83
AHSA1 (activator of HSP90 ATPase activity 1)	-0.73
FES (FES proto-oncogene, tyrosine kinase)	0.37
FES (FES proto-oncogene, tyrosine kinase)	0.06
FES (FES proto-oncogene, tyrosine kinase)	1.94
FES (FES proto-oncogene, tyrosine kinase)	1.25
USP10 (ubiquitin specific peptidase 10)	0.16
USP10 (ubiquitin specific peptidase 10)	-0.33
USP10 (ubiquitin specific peptidase 10)	-0.53
USP10 (ubiquitin specific peptidase 10)	-1.27
ST7L (suppression of tumorigenicity 7 like)	0.03
ST7L (suppression of tumorigenicity 7 like)	1.03
ST7L (suppression of tumorigenicity 7 like)	0.24
ST7L (suppression of tumorigenicity 7 like)	1.01
SLC22A24	-0.16
SLC22A24	-1.11
SLC22A24	-0.76
SLC22A24	-1.01

Part of the list above in another layout.
ZNF211 (zinc finger protein 211) — TNF reporter robust z-score = -0.44
ZNF211 (zinc finger protein 211) — TNF reporter robust z-score = -0.83
ZNF211 (zinc finger protein 211) — TNF reporter robust z-score = -0.32
ZNF211 (zinc finger protein 211) — TNF reporter robust z-score = -0.55
MFHAS1 (multifunctional ROCO family signaling regulator 1) — TNF reporter robust z-score = -1.72 (active)
MFHAS1 (multifunctional ROCO family signaling regulator 1) — TNF reporter robust z-score = -1.35
MFHAS1 (multifunctional ROCO family signaling regulator 1) — TNF reporter robust z-score = -0.37
MFHAS1 (multifunctional ROCO family signaling regulator 1) — TNF reporter robust z-score = 0.22
ADRA1D (adrenoceptor alpha 1D) — TNF reporter robust z-score = 0.11
ADRA1D (adrenoceptor alpha 1D) — TNF reporter robust z-score = 1.35
ADRA1D (adrenoceptor alpha 1D) — TNF reporter robust z-score = 1.36
ADRA1D (adrenoceptor alpha 1D) — TNF reporter robust z-score = 1.13
GRIN3A (glutamate ionotropic receptor NMDA type subunit 3A) — TNF reporter robust z-score = -1.19
GRIN3A (glutamate ionotropic receptor NMDA type subunit 3A) — TNF reporter robust z-score = -0.12
GRIN3A (glutamate ionotropic receptor NMDA type subunit 3A) — TNF reporter robust z-score = -0.79
GRIN3A (glutamate ionotropic receptor NMDA type subunit 3A) — TNF reporter robust z-score = -0.2
PHC2 (polyhomeotic homolog 2) — TNF reporter robust z-score = -1.6 (active)
